Test results as given in patent publication US20150320880A1, “ANTIBODY DRUG CONJUGATES” (NOVARTIS AG, priority 2013, published 2015).
These are yes or no findings as the source states them, for the method shown. Some binding calls cover weakened binding; strength is not graded here.

Protein sequences, listed by entry. Tags and fused reporters are not part of them. Lines headed by an entry give the natural chain unless they say otherwise; changes in a name come on top. Chains listed by the source or under a name are the forms on record and can include a tag or linker.
mutant human cKIT on GIST-T1 cells (P10721, form named): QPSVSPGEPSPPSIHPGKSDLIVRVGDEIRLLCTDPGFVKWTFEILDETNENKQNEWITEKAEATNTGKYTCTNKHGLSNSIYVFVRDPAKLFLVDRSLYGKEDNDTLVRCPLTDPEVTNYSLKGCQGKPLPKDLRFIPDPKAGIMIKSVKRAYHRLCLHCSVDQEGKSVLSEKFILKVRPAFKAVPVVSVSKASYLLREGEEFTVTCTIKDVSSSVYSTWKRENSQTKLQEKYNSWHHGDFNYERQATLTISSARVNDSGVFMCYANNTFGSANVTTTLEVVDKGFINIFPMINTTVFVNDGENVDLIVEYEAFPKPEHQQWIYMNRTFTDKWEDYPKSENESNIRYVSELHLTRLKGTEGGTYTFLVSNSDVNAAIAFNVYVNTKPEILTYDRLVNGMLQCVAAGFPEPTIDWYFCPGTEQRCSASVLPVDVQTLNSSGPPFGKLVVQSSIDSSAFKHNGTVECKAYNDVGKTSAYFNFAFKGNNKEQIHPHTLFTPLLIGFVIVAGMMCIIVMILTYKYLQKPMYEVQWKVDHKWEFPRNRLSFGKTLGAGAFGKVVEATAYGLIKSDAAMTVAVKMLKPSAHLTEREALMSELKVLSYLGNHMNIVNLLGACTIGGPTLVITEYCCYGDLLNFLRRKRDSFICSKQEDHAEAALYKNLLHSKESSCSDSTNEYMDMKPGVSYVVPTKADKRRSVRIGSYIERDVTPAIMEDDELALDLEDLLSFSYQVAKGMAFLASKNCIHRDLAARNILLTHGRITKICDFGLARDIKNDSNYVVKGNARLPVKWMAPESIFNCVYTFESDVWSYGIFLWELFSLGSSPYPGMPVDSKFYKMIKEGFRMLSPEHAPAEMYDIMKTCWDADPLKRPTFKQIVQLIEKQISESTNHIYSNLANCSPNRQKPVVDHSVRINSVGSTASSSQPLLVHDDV

Molecular target: mutant human cKIT on GIST-T1 cells (human) (UniProt P10721)
Test: flow cytometry on GIST-T1 cells, 10 ug/ml antibody

B1: NEG085 (antibody, human IgG1, kappa, V domains shown)
VH: EVQLVESGGGLVQPGGSLRLSCAASGFAFSGYYMAWVRQAPGKGLEWVANINYPGSSTYYLDSVKGRFTISRDNAKNSLYLQMNSLRAEDTAVYYCARGDYYGTTYWYFDVWGQGTTVTVSS
VL: DIQMTQSPSSLSASVGDRVTITCRASQSISSYLNWYQQKPGKAPKLLIYYTSRLQSGVPSRFSGSGSGTDFTLTISSLQPEDFATYYCQQGRRLWSFGGGTKVEIKR
notes: Humanized, optimized variant of 9P3; human IgG1 kappa; also called unconjugated NEG085
Q: Which binding does the source give for B1 here?
A: binds
